From patent US20260200999A1, “SYNTHETIC TRANSCRIPTION FACTORS” (ETH ZURICH, priority 2022, published 2026)

B1: Flag-tagged MTF: MTF with C-terminal Flag tag (protein)
chain: MFGVKCHNTDSEPLKNEDLLKNLLTMGVDIDMARKRQPGVFHRMITNEQDLKMFLLSKGASKEVIASIISRYPRAITRTPENLSKRWDLWRKIVTSDLEIVNILERSPESFFRSNNNLNLENNIKFLYSVGLTRKCLCRLLTNAPRTFSNSLDLNKQMVEFLQAAGLSLGHNDPADFVRKIIFKNPFILIQSTKRVKANIEFLRSTFNLNSEELLVLICGPGAEILDLSNDYARRSYANIKEKLFSLGCTEEEVQKFVLSYPDVIFLAEKKFNDKIDCLMEENISISQIIENPRVLDSSISTLKSRIKELVNAGCNLSTLNITLLSWSKKRYEAKLKKLSRFAQAGEGTLSEALLQLQFDDEDLGALLGNSTDPAVFTDLASVDNSEFQQLLNQGIPVAPHTTEPMLMEYPEAITRLVTGAQRPPDPAPAPLGAPGLPNGLLSGDEDFSSIADMDFSALLSQISSDYKDHDGDYKDHDIDYKDDDDK
modifications: C-terminal Flag tag
B2: Flag-tagged wild-type MTERF1: wild-type human MTERF1 with Flag tag (protein)
chain: MQSLSLGQTSISKGLNYLTIMAPGNLWHMRNNFLFGSRCWMTRFSAENIFKSVSFRLFGVKCHNTDSEPLKNEDLLKNLLTMGVDIDMARKRQPGVFHRMITNEQDLKMFLLSKGASKEVIASIISRYPRAITRTPENLSKRWDLWRKIVTSDLEIVNILERSPESFFRSNNNLNLENNIKFLYSVGLTRKCLCRLLTNAPRTFSNSLDLNKQMVEFLQAAGLSLGHNDPADFVRKIIFKNPFILIQSTKRVKANIEFLRSTFNLNSEELLVLICGPGAEILDLSNDYARRSYANIKEKLFSLGCTEEEVQKFVLSYPDVIFLAEKKFNDKIDCLMEENISISQIIENPRVLDSSISTLKSRIKELVNAGCNLSTLNITLLSWSKKRYEAKLKKLSRFADYKDHDGDYKDHDIDYKDDDDK
modifications: Flag tag
B3: MTF: fusion of human MTERF1 amino acids 58-399 to RELA amino acids 430-551; prototype HumTAP synthetic transcription factor (protein)
chain: MFGVKCHNTDSEPLKNEDLLKNLLTMGVDIDMARKRQPGVFHRMITNEQDLKMFLLSKGASKEVIASIISRYPRAITRTPENLSKRWDLWRKIVTSDLEIVNILERSPESFFRSNNNLNLENNIKFLYSVGLTRKCLCRLLTNAPRTFSNSLDLNKQMVEFLQAAGLSLGHNDPADFVRKIIFKNPFILIQSTKRVKANIEFLRSTFNLNSEELLVLICGPGAEILDLSNDYARRSYANIKEKLFSLGCTEEEVQKFVLSYPDVIFLAEKKFNDKIDCLMEENISISQIIENPRVLDSSISTLKSRIKELVNAGCNLSTLNITLLSWSKKRYEAKLKKLSRFAQAGEGTLSEALLQLQFDDEDLGALLGNSTDPAVFTDLASVDNSEFQQLLNQGIPVAPHTTEPMLMEYPEAITRLVTGAQRPPDPAPAPLGAPGLPNGLLSGDEDFSSIADMDFSALLSQISS
B4: WT MTERF1: human MTERF1, Uniprot Q99551, including the mitochondrial transfer peptide (protein, listed as Homo sapiens)
chain: MQSLSLGQTSISKGLNYLTIMAPGNLWHMRNNFLFGSRCWMTRFSAENIFKSVSFRLFGVKCHNTDSEPLKNEDLLKNLLTMGVDIDMARKRQPGVFHRMITNEQDLKMFLLSKGASKEVIASIISRYPRAITRTPENLSKRWDLWRKIVTSDLEIVNILERSPESFFRSNNNLNLENNIKFLYSVGLTRKCLCRLLTNAPRTFSNSLDLNKQMVEFLQAAGLSLGHNDPADFVRKIIFKNPFILIQSTKRVKANIEFLRSTFNLNSEELLVLICGPGAEILDLSNDYARRSYANIKEKLFSLGCTEEEVQKFVLSYPDVIFLAEKKFNDKIDCLMEENISISQIIENPRVLDSSISTLKSRIKELVNAGCNLSTLNITLLSWSKKRYEAKLKKLSRFA

Tested on: Hela cells
Experiment: Intracellular localization by anti-Flag confocal microscopy
Format: cell-based, human
Conditions: transfected Hela cells, anti-Flag-tag antibody

Molecule | intracellular localization
B1 | distributed throughout the whole cell, including the nucleus, without obvious localization to the mitochondria
B2 | confined to mitochondria
B3 | diffused within a cell, including the nucleus
B4 | localized only to the mitochondria
